The target in test [1] is T1, PapD chaperone with His-tag (uropathogenic Escherichia coli) (UniProt P15319).
T1 sequence: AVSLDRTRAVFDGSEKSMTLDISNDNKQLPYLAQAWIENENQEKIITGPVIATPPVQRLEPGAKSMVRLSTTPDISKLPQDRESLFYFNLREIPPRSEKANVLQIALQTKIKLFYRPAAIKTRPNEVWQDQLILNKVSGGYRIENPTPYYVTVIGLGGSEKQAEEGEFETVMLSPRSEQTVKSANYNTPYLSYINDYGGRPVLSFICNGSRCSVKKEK
As to the kind of experiment: isolation of assembly intermediates from bacteria; complexes formed in bacteria and isolated; no data shown, details not told.

Test [2] has as its target T2, PapD chaperone with His-tag (uropathogenic Escherichia coli), P15319.
T2 chain: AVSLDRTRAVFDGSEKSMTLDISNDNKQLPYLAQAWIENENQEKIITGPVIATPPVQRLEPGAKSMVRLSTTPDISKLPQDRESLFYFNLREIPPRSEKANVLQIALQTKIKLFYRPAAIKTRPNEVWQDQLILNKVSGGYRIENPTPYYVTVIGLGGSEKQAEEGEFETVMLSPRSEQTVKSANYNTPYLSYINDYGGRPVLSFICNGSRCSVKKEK
In words: cryo-EM structure; ∆E complex PapCDHisK_(E-NTE)FG made in vivo, purified from the outer membrane by the His-tag on PapD, 25 mM Tris-HCl pH 8.0, 120 mM NaCl, 0.1% DDM; Conformer I, 7.6 Å. The note with it: remark: other sources report otherwise.

Test [3] addresses T2, PapD chaperone with His-tag …. In words: cryo-EM structure; ∆EF complex PapCDHisK_(F-NTE)G made in vivo, purified from the outer membrane by the His-tag on PapD, 25 mM Tris-HCl pH 8.0, 120 mM NaCl, 0.1% DDM; Conformer II at 3.8 Å and Conformer III at 7.2 Å from one dataset. The note with it: remark: other sources report otherwise.
Test [4] shares this target. As to the kind of experiment: isolation of assembly intermediates from bacteria; complexes formed in bacteria and isolated; no data shown, details not told. As to conditions: remark: other sources report otherwise.

No constants are given. Whether binding was seen depends on the method and setting. Some entries that bind do so weakly or less than the wild type. Sequences can lack the tags named with a protein.

Here are results for 4 molecules from PMC8410936.

B1: PapK (protein, UniProt P62532 22-178)
chain: SDVAFRGNLLDRPCHVSGDSLNKHVVFKTRASRDFWYPPGRSPTESFVIRLENCHATAVGKIVTLTFKGTEEAALPGHLKVTGVNAGRLGIALLDTDGSSLLKPGTSHNKGQGEKVTGNSLELPFGAYVVATPEALRTKSVVPGDYEATATFELTYR
For B1, the binding result in test [1] is recorded as “binds”.

B2: PapC usher, P07110 25-836 (protein)
chain: ASAVEFNTDVLDAADKKNIDFTRFSEAGYVLPGQYLLDVIVNGQSISPASLQISFVEPALSGDKAEKKLPQACLTSDMVRLMGLTAESLDKVVYWHDGQCADFHGLPGVDIRPDTGAGVLRINMPQAWLEYSDATWLPPSRWDDGIPGLMLDYNLNGTVSRNYQGGDSHQFSYNGTVGGNLGPWRLRADYQGSQEQSRYNGEKTTNRNFTWSRFYLFRAIPRWRANLTLGENNINSDIFRSWSYTGASLESDDRMLPPRLRGYAPQITGIAETNARVVVSQQGRVLYDSMVPAGPFSIQDLDSSVRGRLDVEVIEQNGRKKTFQVDTASVPYLTRPGQVRYKLVSGRSRGYGHETEGPVFATGEASWGLSNQWSLYGGAVLAGDYNALAAGAGWDLGVPGTLSADITQSVARIEGERTFQGKSWRLSYSKRFDNADADITFAGYRFSERNYMTMEQYLNARYRNDYSSREKEMYTVTLNKNVADWNTSFNLQYSRQTYWDIRKTDYYTVSVNRYFNVFGLQGVAVGLSASRSKYLGRDNDSAYLRISVPLGTGTASYSGSMSNDRYVNMAGYTDTFNDGLDSYSLNAGLNSGGGLTSQRQINAYYSHRSPLANLSANIASLQKGYTSFGVSASGGATITGKGAALHAGGMSGGTRLLVDTDGVGGVPVDGGQVVTNRWGTGVVTDISSYYRNTTSVDLKRLPDDVEATRSVVESALTEGAIGYRKFSVLKGKRLFAILRLADGSQPPFGASVTSEKGRELGMVADEGLAWLSGVTPGETLSVNWDGKIQCQVNVPETAISDQQLLLPCTPQK
Take B2: the binding entry in test [2], in test [3] and in test [4] was “binds” throughout.

B3: PapF (protein, UniProt P08408 19-167)
chain: ADVQINIRGNVYIPPCTINNGQNIVVDFGNINPEHVDNSRGEVTKTISISCPYKSGSLWIKVTGNTMGGGQNNVLATNITHFGIALYQGKGMSTPLILGNGSGNGYGVTAGLDTARSTFTFTSVPFRNGSGILNGGDFQTTASMSMIYN
As for B3, in test [1], the binding entry is listed as “binds”.

B4: PapE (protein, UniProt P08407 25-173)
chain: VDNLTFRGKLIIPACTVSNTTVDWQDVEIQTLSQNGNHEKEFTVNMRCPYNLGTMKVTITATNTYNNAILVQNTSNTSSDGLLVYLYNSNAGNIGTAITLGTPFTPGKITGNNADKTISLHAKLGYKGNMQNLIAGPFSATATLVASYS
As to B4, in test [1], the binding entry is recorded as “binds”.
